The source of these data is the supplement of paper PMC10849652.

Protein sequences, listed by entry. Tags and fused reporters are not part of them. Lines headed by an entry give the natural chain unless they say otherwise; changes in a name come on top.
UniProt P10620: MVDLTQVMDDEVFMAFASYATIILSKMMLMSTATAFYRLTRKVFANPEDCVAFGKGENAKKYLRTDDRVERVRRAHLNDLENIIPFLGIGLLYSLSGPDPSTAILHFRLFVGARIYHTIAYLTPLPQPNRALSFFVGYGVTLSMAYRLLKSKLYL
UniProt Q9BV20: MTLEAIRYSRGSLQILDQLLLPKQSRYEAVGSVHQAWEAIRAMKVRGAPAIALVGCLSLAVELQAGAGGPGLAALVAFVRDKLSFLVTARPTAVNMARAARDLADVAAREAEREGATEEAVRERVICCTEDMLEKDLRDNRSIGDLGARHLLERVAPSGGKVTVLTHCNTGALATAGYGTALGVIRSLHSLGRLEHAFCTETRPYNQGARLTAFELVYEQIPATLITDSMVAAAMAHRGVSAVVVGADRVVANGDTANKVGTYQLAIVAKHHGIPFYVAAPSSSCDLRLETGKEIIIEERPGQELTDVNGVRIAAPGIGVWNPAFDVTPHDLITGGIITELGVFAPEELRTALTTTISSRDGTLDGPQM
UniProt Q9Y3A3: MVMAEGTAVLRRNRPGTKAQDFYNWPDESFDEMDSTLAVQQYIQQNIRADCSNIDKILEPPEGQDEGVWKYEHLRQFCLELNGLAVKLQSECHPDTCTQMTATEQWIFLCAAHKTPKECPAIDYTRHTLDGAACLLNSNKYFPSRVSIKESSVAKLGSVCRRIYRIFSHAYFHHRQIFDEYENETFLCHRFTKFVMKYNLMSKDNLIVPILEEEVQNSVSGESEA
UniProt Q9BUB5: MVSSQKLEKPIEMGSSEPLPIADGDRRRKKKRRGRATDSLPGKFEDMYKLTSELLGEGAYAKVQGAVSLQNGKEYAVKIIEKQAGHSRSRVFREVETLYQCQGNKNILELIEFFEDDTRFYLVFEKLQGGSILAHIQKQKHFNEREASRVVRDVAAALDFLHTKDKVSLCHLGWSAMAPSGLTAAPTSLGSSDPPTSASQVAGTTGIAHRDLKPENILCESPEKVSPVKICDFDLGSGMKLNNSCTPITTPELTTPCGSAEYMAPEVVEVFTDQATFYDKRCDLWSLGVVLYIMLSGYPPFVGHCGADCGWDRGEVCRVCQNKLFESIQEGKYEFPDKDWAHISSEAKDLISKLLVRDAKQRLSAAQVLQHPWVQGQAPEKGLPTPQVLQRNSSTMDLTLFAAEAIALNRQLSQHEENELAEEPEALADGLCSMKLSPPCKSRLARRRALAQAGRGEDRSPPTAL
UniProt A9UHW6: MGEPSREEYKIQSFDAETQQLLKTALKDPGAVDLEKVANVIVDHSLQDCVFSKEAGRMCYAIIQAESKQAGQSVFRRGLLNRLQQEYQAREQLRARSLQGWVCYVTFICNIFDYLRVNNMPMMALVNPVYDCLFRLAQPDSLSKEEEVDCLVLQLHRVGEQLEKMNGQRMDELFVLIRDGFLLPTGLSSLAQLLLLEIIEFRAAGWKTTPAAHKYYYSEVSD
UniProt Q9UH92: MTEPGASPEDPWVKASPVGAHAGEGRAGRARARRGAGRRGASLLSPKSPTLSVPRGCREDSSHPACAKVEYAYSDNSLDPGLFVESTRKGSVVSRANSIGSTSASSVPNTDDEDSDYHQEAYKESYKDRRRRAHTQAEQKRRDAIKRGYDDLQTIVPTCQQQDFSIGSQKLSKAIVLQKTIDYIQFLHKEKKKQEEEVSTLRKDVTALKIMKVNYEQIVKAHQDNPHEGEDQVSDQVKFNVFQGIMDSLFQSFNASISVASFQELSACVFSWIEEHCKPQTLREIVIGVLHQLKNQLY
UniProt P34949: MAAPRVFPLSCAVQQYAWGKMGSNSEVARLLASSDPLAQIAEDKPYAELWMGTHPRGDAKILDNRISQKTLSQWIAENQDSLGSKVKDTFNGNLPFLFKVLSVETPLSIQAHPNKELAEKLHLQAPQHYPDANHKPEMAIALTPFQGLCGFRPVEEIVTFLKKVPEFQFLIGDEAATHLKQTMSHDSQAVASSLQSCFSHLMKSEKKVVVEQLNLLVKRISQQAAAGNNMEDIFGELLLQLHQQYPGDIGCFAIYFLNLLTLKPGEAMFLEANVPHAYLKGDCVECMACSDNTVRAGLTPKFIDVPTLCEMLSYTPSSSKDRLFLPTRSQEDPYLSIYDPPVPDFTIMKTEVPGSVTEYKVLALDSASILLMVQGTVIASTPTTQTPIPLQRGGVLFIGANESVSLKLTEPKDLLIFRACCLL
UniProt Q9NV56, whole entry, looked up: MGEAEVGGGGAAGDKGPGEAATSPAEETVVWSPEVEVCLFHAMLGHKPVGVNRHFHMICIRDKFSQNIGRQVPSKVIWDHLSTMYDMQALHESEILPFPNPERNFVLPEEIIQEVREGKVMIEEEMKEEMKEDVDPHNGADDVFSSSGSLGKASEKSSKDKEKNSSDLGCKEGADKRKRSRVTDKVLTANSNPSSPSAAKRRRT
UniProt Q9BU76: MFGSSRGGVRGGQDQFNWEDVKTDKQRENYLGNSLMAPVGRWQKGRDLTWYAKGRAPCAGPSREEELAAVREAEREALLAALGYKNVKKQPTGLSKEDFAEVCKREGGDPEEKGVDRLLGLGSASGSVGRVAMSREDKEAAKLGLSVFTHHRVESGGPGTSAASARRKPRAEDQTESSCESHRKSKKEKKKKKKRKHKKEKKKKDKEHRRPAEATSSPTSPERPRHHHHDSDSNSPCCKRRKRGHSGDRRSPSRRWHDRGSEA
UniProt O95297: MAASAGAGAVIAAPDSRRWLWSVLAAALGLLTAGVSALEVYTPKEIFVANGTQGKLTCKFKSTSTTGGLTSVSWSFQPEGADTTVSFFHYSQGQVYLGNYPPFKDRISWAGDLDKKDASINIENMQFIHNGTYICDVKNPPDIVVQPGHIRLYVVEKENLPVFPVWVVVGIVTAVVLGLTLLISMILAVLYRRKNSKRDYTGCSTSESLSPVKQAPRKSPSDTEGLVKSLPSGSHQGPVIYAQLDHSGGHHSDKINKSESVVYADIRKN
UniProt P25325: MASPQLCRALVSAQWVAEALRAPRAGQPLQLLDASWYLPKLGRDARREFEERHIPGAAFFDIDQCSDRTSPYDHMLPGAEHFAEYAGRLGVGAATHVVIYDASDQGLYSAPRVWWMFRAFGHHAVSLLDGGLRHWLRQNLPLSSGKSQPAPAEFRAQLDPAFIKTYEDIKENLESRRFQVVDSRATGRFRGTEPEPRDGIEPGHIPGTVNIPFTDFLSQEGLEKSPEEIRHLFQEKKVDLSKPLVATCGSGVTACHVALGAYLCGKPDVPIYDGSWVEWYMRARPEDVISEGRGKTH
UniProt Q5TGZ0: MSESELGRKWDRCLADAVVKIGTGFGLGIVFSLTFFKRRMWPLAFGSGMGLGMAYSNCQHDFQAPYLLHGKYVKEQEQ
UniProt Q96PC5: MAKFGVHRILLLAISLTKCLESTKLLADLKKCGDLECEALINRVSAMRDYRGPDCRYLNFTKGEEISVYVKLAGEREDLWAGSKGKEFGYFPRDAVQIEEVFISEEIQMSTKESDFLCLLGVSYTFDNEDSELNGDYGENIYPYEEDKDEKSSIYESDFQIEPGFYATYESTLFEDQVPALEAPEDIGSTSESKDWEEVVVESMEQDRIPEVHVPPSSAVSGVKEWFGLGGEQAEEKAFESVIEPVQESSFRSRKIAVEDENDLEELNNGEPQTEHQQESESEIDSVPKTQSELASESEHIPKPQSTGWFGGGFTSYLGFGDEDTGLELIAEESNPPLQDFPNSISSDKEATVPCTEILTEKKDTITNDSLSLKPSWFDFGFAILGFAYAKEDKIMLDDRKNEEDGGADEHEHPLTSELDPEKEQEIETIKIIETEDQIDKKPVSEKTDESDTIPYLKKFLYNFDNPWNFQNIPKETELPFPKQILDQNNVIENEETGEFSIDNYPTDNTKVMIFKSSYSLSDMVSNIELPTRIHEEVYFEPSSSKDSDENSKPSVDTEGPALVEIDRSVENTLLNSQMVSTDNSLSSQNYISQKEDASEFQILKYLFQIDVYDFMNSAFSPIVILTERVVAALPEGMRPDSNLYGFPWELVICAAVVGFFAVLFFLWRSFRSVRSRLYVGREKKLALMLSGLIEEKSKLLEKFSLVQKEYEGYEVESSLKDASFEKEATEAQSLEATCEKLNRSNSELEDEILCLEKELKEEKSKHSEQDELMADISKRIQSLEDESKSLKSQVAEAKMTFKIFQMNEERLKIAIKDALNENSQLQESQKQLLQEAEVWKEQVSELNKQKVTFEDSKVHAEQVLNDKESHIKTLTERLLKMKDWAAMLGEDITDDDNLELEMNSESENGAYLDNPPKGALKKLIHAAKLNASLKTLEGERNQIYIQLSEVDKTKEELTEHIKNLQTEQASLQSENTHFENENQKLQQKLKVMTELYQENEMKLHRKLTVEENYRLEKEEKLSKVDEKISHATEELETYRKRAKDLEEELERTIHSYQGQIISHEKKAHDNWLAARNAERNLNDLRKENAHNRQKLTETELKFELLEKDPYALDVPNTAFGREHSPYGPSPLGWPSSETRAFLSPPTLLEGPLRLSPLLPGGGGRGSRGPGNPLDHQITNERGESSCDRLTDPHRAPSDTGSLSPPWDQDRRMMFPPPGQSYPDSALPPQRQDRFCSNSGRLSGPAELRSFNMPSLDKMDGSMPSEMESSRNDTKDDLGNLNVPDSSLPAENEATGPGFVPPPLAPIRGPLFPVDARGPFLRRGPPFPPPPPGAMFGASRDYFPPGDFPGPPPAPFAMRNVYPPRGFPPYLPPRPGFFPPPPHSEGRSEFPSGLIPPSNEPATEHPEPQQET
UniProt Q9UHC7: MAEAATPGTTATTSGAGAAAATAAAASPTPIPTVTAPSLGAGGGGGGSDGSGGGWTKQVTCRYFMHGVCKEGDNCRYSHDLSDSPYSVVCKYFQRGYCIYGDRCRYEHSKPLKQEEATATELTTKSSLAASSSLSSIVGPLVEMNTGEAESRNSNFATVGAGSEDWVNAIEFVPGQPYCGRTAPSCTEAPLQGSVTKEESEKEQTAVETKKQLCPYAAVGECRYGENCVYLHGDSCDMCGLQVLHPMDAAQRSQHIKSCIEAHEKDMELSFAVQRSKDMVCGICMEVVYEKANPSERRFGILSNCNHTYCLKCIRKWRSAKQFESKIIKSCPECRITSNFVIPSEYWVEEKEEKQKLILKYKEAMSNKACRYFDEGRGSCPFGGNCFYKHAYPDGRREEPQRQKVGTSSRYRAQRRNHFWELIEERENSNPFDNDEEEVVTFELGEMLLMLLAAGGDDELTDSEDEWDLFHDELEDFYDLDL
UniProt Q8IY33: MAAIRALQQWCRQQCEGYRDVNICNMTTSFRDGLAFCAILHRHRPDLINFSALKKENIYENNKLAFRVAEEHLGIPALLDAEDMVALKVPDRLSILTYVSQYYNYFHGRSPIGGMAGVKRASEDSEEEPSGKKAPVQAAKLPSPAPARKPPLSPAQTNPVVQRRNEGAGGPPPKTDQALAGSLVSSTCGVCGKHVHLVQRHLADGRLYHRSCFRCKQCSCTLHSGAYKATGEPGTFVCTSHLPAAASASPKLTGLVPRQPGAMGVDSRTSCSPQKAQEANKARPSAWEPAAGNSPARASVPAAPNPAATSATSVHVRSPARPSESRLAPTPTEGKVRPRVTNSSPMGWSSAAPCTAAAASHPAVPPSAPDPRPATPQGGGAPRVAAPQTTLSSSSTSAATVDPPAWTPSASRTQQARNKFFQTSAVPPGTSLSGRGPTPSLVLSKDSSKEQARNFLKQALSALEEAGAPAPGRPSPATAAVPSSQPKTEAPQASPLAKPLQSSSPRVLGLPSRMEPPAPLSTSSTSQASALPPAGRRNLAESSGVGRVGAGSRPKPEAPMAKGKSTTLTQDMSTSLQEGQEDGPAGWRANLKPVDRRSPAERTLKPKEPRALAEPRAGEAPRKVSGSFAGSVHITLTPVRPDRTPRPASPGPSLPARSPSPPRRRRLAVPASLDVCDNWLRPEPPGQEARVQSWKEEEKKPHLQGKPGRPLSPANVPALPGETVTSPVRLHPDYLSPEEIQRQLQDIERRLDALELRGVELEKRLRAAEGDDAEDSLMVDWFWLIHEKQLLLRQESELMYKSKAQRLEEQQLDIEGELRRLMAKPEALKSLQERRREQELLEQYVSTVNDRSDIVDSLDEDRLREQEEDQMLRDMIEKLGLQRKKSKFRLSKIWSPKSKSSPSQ
UniProt Q9H8M7: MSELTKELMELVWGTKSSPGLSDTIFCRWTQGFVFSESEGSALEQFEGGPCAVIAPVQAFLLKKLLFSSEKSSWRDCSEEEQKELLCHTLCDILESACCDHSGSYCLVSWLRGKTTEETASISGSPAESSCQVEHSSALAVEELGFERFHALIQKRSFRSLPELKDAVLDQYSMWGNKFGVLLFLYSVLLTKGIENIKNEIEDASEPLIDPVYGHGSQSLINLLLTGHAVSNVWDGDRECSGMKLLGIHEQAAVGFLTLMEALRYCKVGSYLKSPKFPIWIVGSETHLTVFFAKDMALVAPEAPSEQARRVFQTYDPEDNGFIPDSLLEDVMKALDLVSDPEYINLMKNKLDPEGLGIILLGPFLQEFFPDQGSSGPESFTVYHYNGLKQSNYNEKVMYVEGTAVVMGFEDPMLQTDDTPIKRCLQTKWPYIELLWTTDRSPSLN

The list shows a part of the results.

Compound in the test: CC1=C(C=C(C=C1)NC(=O)C2=CC(=CC=C2)C(C)(C)C#N)NC3=CC4=C(C=C3)N=CN(C4=O)C
Nature of the test: log2 fold change, soluble protein after heating vs DMSO (PISA); higher = thermal stabilisation; K562 lysate, 10 uM; active = over 0.2 and 3.5 SD of the protein, either way, in both replicates (recomputed). The procedure, abridged:
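K562 pellets were dounce-homogenised in PBS pH 7.4 containing 1 mM MgCl2, and the crude extract, at 1 mg/mL protein, was exposed to 10 μM compound for 30 min. Aliquots were heated for 3 min across 48°C-58°C, pooled, brought to 0.5% NP-40 at 4°C and spun at 21,000xg for 90 min, with the supernatant taken as soluble protein. TMTpro 16plex LC-MS/MS with equalised channel sums quantified that protein. Values are log-two fold changes in thermal stability relative to solvent controls, taken from duplicates.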
For the target MGST1 (UniProt P10620), the log2 fold change was inactive: -0.01. On to MRI1 (UniProt Q9BV20), for which the log2 fold change is inactive: 0.048. Consider MOB4 (UniProt Q9Y3A3), for which the log2 fold change was inactive: 0.015. For MKNK1 (UniProt Q9BUB5), the log2 fold change was inactive: 0.008. Consider MIF4GD isoform 3 (UniProt A9UHW6), for which the log2 fold change is inactive: 0.

With MRPL1 (UniProt Q9BYD6), the log2 fold change was inactive: -0.032. On to MLX (UniProt Q9UH92), for which the log2 fold change is inactive: 0.027. The result for MPI (UniProt P34949) reads inactive: 0.055; that for MRGBP (UniProt Q9NV56), inactive: -0.028; that for MMTAG2 (UniProt Q9BU76), inactive: 0.054.

Consider MPZL1 (UniProt O95297), for which the log2 fold change is inactive: 0.02. For the target MRPL23 (UniProt Q16540), the log2 fold change was inactive: -0.051. Regarding MPST isoform 2 (UniProt P25325), the log2 fold change was inactive: 0.001.

Consider MRPL15 (UniProt Q9P015), for which the log2 fold change is inactive: 0.032. As for MICOS10 (UniProt Q5TGZ0), the log2 fold change is inactive: 0.012. As to MIA2 (UniProt Q96PC5), the log2 fold change was inactive: 0.012. Regarding MKI67 (UniProt P46013), the log2 fold change was inactive: 0.009. The result for MKRN1 (UniProt Q9UHC7) reads inactive: 0.03. In the case of MRPL14 (UniProt Q6P1L8), the log2 fold change is inactive: -0.018.

Regarding MICALL1 (UniProt Q8N3F8), the log2 fold change is inactive: 0.024.

Turning to MICALL2 (UniProt Q8IY33), the log2 fold change is inactive: 0.012. The result for MINDY3 (UniProt Q9H8M7) reads inactive: -0.034; that for MPP1 (UniProt Q00013), inactive: 0.022; that for MON2 isoform 5 (UniProt Q7Z3U7), inactive: 0.01.
